Results are given in words; binding and its absence hold for the method and conditions named. Some results given as binding are weak or reduced against the parent protein; the word gives no strength. Where a sequence is shown, tags or fusion partners need not be part of it.
Tests used:
[1] = biological target: iNKG2D.YA-CAR on primary human T cells (convertibleCAR) (human); assay: flow cytometry; convertibleCAR-CD8 cells incubated 30 min with Alexa Fluor 647 Rituximab.LC-U2S3, washed
[2] = biological target: iNKG2D.YA-CAR on primary human T cells (convertibleCAR) (human); assay: flow cytometry on transduced CD8+ T cells, PE anti-human kappa chain (FIG. 7C)
[3] = biological target: iNKG2D.YA-CAR on primary human T cells (convertibleCAR) (human); assay: flow cytometry on convertibleCAR-T cells armed ex vivo with 5 nM MicAbody
[4] = biological target: iNKG2D.YA-CAR on primary human T cells (convertibleCAR) (human); assay: flow cytometry of CD8+ T cells; Rituximab.LC-U2S3 followed by PE mouse anti-human kappa, against GFP
[5] = biological target: iNKG2D.YA-CAR on primary human T cells (convertibleCAR) (human); assay: flow cytometry of blood T cells of NSG mice with Raji lymphoma; biotinylated anti-human F(ab')2 and streptavidin-PE
[6] = biological target: iNKG2D.YA-CAR on primary human T cells (convertibleCAR) (human); assay: flow cytometry of blood T cells of NSG mice with subcutaneous Raji tumors; anti-human F(ab')2 staining
[7] = biological target: iNKG2D.YA-CAR on primary human T cells (convertibleCAR) (human); assay: flow cytometry of blood T cells from treated NSG mice, anti-F(ab')2 (FIG. 11E)

Measured: binding

B1: Rituximab.LC-U2S3 MicAbody (U2S3 A1-A2 domain fused to the C-terminus of the rituximab kappa light chain) (bispecific antibody)
heavy: QVQLQQPGAELVKPGASVKMSCKASGYTFTSYNMHWVKQTPGRGLEWIGAIYPGNGDTSYNQKFKGKATLTADKSSSTAYMQLSSLTSEDSAVYYCARSTYYGGDWYFNVWGAGTTVTVSAA
light (part 1 of 2): QIVLSQSPAILSASPGEKVTMTCRASSSVSYIHWFQQKPGSSPKPWIYATSNLASGVPVRFSGSGSGTSYSLTISRVEAEDAATYYCQQWTSNPPTFGGGTKLEIK
light (part 2 of 2): APTSSSGGGGSEPHSLSYDITVIPKFRPGPRWCAVQGQVDEKTFLHYDCGQKTVTPVSPLGKKLQVTTAWKAQNPVLREVVDILTEQLWDIQLENYTPKEPLTLQARMSCEQKAEGHSSGSWQFSFDGQIFLLFDSEKRMWTTVHPGARKMKEKWENDKVVATKLYLWSMGDCIGWLEDFLMGMDSTLEPS
notes: also called Rit-S3; Ritux-S3; not shown: human IgG1 heavy-chain constant region, ADCC-deficient; human kappa light-chain constant region
binds: all assays above

From patent US20240287202A1 (XYPHOS BIOSCIENCES, published 2024)
